Experimental data: publication PMC12227620
No constants are given. Whether binding was seen depends on the method and setting. Binding seen in cells or lysates may run through a third protein. Some results given as binding are weak or reduced against the parent protein; the word gives no strength.

By UniProt entry, the sequences of proteins in these tests, tags left out. Residues count along the entry.
UniProt P25025: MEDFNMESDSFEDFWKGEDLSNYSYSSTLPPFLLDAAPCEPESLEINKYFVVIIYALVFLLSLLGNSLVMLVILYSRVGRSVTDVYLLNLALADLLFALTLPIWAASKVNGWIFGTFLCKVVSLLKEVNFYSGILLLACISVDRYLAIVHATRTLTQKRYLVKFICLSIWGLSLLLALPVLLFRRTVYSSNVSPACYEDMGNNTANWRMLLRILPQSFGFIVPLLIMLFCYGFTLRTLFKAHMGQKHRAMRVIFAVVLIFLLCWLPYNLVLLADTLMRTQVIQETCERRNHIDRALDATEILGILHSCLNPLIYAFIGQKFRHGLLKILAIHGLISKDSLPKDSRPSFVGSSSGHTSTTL
UniProt Q14126, residues 50-1118: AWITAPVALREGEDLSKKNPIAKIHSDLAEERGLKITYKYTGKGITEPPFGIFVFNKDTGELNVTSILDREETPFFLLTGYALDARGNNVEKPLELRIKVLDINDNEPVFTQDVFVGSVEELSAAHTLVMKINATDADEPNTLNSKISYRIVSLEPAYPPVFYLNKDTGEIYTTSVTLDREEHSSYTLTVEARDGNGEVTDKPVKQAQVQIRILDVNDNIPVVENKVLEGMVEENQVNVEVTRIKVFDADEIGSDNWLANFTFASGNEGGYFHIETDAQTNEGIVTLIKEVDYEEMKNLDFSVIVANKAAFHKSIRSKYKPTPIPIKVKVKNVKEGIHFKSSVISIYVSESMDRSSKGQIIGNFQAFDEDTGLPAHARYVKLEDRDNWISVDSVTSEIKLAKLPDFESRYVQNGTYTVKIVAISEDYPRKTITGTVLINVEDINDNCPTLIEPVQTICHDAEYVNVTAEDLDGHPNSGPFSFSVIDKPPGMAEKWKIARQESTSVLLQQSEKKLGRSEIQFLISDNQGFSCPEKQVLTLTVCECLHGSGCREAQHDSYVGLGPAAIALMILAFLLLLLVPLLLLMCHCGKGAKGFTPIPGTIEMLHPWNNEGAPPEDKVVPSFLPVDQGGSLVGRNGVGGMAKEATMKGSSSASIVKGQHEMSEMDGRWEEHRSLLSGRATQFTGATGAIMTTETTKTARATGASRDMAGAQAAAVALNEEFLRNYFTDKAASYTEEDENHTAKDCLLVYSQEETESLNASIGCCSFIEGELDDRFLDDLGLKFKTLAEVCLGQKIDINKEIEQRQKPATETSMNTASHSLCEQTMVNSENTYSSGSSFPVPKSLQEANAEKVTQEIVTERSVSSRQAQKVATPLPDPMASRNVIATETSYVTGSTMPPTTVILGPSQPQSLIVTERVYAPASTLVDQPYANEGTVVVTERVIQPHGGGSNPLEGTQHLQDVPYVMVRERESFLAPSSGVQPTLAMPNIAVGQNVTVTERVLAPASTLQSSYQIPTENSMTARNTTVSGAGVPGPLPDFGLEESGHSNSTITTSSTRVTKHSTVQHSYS

Target: CXCR2 (human (endogenous in PDAC cells)) (UniProt P25025)
Test: co-IP; lysates in NP-40 buffer incubated with antibody against human CXCR2 at 4 °C overnight, Protein G magnetic beads 4 h, five washes with PBS, immunoblotting; PDAC cells

binding: binds
Substance: Desmoglein-2 (from UniProt Q14126 50-1118)
